These are yes or no findings as the source states them, for the method shown. In cells and extracts the contact can be indirect. Some entries that bind do so weakly or less than the wild type. Sequences can lack the tags named with a protein.

Sequences of proteins named here, by UniProt entry; tags and fusion partners are left off.
UniProt O00487: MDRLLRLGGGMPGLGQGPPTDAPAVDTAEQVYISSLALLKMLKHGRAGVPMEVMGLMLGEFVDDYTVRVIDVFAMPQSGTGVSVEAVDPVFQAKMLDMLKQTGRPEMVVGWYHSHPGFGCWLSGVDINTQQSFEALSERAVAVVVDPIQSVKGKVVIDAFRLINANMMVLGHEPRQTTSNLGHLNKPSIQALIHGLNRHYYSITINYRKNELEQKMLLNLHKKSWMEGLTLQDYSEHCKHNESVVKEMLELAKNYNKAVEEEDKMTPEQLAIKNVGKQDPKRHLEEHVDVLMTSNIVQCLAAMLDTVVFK

The assay has as its target GFP-PSMD14 (UniProt O00487). Briefly: co-IP; HEK293T cells expressing GFP-PSMD14 transfected with FLAG-tagged full-length or truncated CARM1; lysates immunoprecipitated with anti-GFP antibodies, immunoblotted with anti-FLAG antibodies. On the technique in general: Immunoblotting shows a protein as a band on a membrane.

B1: FLAG-tagged C-terminal truncated CARM1 (1-453 aa) (domain or fragment, UniProt Q86X55 1-453)
chain: MAAAAAAVGPGAGGAGSAVPGGAGPCATVSVFPGARLLTIGDANGEIQRHAEQQALRLEVRAGPDSAGIALYSHEDVCVFKCSVSRETECSRVGKQSFIITLGCNSVLIQFATPNDFCSFYNILKTCRGHTLERSVFSERTEESSAVQYFQFYGYLSQQQNMMQDYVRTGTYQRAILQNHTDFKDKIVLDVGCGSGILSFFAAQAGARKIYAVEASTMAQHAEVLVKSNNLTDRIVVIPGKVEEVSLPEQVDIIISEPMGYMLFNERMLESYLHAKKYLKPSGNMFPTIGDVHLAPFTDEQLYMEQFTKANFWYQPSFHGVDLSALRGAAVDEYFRQPVVDTFDIRILMAKSVKYTVNFLEAKEGDLHRIEIPFKFHMLHSGLVHGLAFWFDVAFIGSIMTVWLSTAPTEPLTHWYQVRCLFQSPLFAKAGDTLSGTCLLIANKRQSYDISIV
B1: the binding entry was “binds”.

B2: FLAG-tagged C-terminal truncated CARM1 (1-287 aa) (domain or fragment, UniProt Q86X55 1-287)
chain: MAAAAAAVGPGAGGAGSAVPGGAGPCATVSVFPGARLLTIGDANGEIQRHAEQQALRLEVRAGPDSAGIALYSHEDVCVFKCSVSRETECSRVGKQSFIITLGCNSVLIQFATPNDFCSFYNILKTCRGHTLERSVFSERTEESSAVQYFQFYGYLSQQQNMMQDYVRTGTYQRAILQNHTDFKDKIVLDVGCGSGILSFFAAQAGARKIYAVEASTMAQHAEVLVKSNNLTDRIVVIPGKVEEVSLPEQVDIIISEPMGYMLFNERMLESYLHAKKYLKPSGNMFP
Take B2: the binding entry is given as “no binding”.
